From article PMC9664666
Results are given in words; binding and its absence hold for the method and conditions named. In cells and extracts the contact can be indirect. Some binding calls cover weakened binding; strength is not graded here.

By UniProt entry, the sequences of proteins in these tests, tags left out.
UniProt Q13257: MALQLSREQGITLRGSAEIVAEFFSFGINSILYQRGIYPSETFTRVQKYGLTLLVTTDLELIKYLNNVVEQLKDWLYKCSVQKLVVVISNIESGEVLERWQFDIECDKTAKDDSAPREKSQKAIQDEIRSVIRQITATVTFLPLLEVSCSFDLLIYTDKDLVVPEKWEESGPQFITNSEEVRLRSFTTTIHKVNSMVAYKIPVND

Biological target: T1, Shugoshin-like protein 2 (SGOL2) (human (endogenous in HCC cells SK-HEP-1 and HEP3B)) (UniProt Q562F6)
T1 sequence: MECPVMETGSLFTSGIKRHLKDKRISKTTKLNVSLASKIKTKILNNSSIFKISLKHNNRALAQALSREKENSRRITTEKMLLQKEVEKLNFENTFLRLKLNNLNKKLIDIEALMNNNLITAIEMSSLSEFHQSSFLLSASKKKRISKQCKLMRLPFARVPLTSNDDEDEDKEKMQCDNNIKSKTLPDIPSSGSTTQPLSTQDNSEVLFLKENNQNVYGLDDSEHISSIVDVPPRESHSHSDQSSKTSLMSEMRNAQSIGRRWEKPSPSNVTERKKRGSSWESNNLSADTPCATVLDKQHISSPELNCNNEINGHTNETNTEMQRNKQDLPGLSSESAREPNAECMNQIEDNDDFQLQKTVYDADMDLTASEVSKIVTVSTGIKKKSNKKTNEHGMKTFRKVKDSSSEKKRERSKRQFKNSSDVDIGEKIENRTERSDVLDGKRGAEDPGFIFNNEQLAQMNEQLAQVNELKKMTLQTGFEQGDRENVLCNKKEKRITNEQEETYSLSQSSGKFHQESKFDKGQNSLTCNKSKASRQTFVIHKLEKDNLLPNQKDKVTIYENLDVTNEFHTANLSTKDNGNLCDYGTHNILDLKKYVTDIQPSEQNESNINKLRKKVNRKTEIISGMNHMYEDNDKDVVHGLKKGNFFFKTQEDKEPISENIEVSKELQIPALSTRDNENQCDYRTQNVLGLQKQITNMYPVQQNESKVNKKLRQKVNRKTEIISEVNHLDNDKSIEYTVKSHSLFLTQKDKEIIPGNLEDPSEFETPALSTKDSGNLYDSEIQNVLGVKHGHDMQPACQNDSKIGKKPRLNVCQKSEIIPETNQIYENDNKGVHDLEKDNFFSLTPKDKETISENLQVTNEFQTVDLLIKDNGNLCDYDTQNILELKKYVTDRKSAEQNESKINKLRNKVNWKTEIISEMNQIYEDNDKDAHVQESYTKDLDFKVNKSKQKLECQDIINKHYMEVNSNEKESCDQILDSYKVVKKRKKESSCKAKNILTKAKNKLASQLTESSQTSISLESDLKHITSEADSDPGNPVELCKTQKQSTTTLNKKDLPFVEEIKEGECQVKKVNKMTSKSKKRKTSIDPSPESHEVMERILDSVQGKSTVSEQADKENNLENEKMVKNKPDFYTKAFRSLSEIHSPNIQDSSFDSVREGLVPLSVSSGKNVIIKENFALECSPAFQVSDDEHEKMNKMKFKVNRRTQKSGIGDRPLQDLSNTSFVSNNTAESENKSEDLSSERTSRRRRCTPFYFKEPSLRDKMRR
Test: co-IP; endogenous proteins in HCC cells; IP/COIP kit (Absin); SGOL2 antibody (Bethyl A301-262A) and MAD2 antibody (Bethyl A300-301A) for WB/Co-IP; normal rabbit IgG listed

binding: binds
Substance: mitotic arrest deficient 2 like 1 (MAD2) (from UniProt Q13257 1-205)
